PubChem BioAssay AID504786 – Drosophila RNAi Screening Center, 2011
In all, the deposit lists about 21,000 reagents; this is a random part of those with a known target gene and a result. 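Primary screen; positive scores mean lost reporter signal, so the sign may be inverted from the usual convention.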 The numbers tell different reagents against one gene apart. A plus sign joins genes that one reagent is predicted to hit. Further read-outs or replicates are left out here.

- Screen: 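Positive regulators of HIF-driven reporter output in Drosophila cells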 (primary screen)
- Cell system: Drosophila S2 cells with a stable HIF luciferase reporter
- Reagents: long dsRNA against Drosophila genes, about 0.2 µg dsRNA per well of a 384-well plate
- Duration: three days of knock-down, then 20 h of DFO before reading
- Treatment: desferrioxamine (DFO) at 100 µM, an iron chelator that mimics hypoxia, for 20 h
- Measured: 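Firefly luciferase driven by the mouse ldh-a hypoxia-response element, measured after 20 h of 100 µM DFO; z-scores per plate, higher means more signal lost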
- Scale: z-score: higher = stronger loss of HIF reporter signal

no.	target gene	dsRNA no.	z-score, replicate 1	z-score, replicate 2
1	Pfdn2	1	-0.2	0
2	Or63a	1	-0.4	-0.7
3	Nep6	1	0.8	0.8
4	CG8202	1	-0.2	-0.3
5	Dmtn	1	-0.1	0.2
6	CG5139	1	-0.2	-0.4
7	Nopp140	1	-0.3	-0.2
8	CG14324	1	-0.3	0.1
9	CG1582	1	-0.2	-0.3
10	Actn	1	-0.4	-0.4
11	Gr5a	1	-0.2	-0.1
12	CG9287	1	-0.4	-0.1
13	CG42816 + CG42815	1	-0.1	-0.4
14	Dlish	1	-0.3	-0.3
15	Cyp6a13	1	-0.4	-0.3
16	Tdrd3	1	0.1	0.5
17	s-cup	1	0.2	0.1
18	s-cup	2	-0.2	-0.6
19	CG3511	1	-0.4	-0.1
20	dpr2	1	-0.3	-0.5
21	dpr2	2	-0.3	-0.3
22	edin	1	-0.5	0.6
23	Gal	1	-0.1	-0.2

Not a retest: an excerpt of the list.
no.	target gene	dsRNA no.	z-score, replicate 1	z-score, replicate 2
11	Gr5a	1	-0.2	-0.1
12	CG9287	1	-0.4	-0.1
13	CG42816 + CG42815	1	-0.1	-0.4
14	Dlish	1	-0.3	-0.3
15	Cyp6a13	1	-0.4	-0.3
16	Tdrd3	1	0.1	0.5

The listing continues:
no.	target gene	dsRNA no.	z-score, replicate 1	z-score, replicate 2
24	Hs3st-B	1	-0.1	-0.2
25	Polr2J	1	-0.2	-0.5
26	CG6511	1	0	0.7
27	CG34337	1	-0.3	-0.6
28	CG11816	1	0.1	0.1
29	cher	1	-0.1	-0.4
30	ATPsynC	1	1.1	1.1
31	PGRP-SC1a	1	-0.3	-0.4
32	Sec15	1	0.3	-0.5
33	CG4286	1	0.1	0.2
34	CG31360	1	-0.5	-0.3
35	CG10086	1	-0.2	-0.7
36	ida	1	0	2.1
37	loaf	1	-0.3	-0.7
38	fzo	1	-0.2	-0.2
39	Pgant6	1	2.7	1.8
40	Lar	1	0.1	0.4
41	Lar	2	-0.4	-0.4
42	betaTry	1	-0.4	-0.3
43	CG4301	1	-0.3	-0.6
44	Syn1	1	-0.4	-0.9
45	Syn1	2	-0.4	-0.2
46	CG11226	1	-0.3	-0.4
47	Fcp1	1	-0.3	-0.6
48	Cpr56F	1	-0.2	-0.4
49	CG15522	1	0	0.3
50	CG32206	1	-0.3	-0.8
51	CG32206	2	-0.3	-0.4
52	CG32206	3	-0.2	-0.4
53	CG32206	4	-0.3	-0.5
54	CG32206	5	-0.3	-0.7
55	CG14329	1	-0.3	0.2
56	MrgBP	1	0.5	0.5
